The nature of the series: general procedure: Fmoc solid-phase peptide synthesis; Fmoc-Val-Wang resin; Rink amide resin; HBTU/DIPEA. Particulars: conjugation step, overall.

Starred links: 1 amine or outer side, 2 acyl side, 3 side chain; linkers in the order of their positions; H or OH if unused. Positions of bridges follow the written chain, without caps; N, C: chain ends. Chains are numbered I, II in the order given. X1 = O=C(CCN[*:2])[*:1]

“I: H-CKNYKKTEV-OH / II: H-CRRRRRRR-NH2 (disulfide I:1-II:1; linker I:6-I:8 via X1; SMILES CC(C)[C@H](NC(=O)[C@@H]1CCC(=O)NCCC(=O)NCCCC[C@H](NC(=O)[C@H](CCCCN)NC(=O)[C@H](Cc2ccc(O)cc2)NC(=O)[C@H](CC(N)=O)NC(=O)[C@H](CCCCN)NC(=O)[C@@H](N)CSSC[C@H](N)C(=O)N[C@@H](CCCNC(=N)N)C(=O)N[C@@H](CCCNC(=N)N)C(=O)N[C@@H](CCCNC(=N)N)C(=O)N[C@@H](CCCNC(=N)N)C(=O)N[C@@H](CCCNC(=N)N)C(=O)N[C@@H](CCCNC(=N)N)C(=O)N[C@@H](CCCNC(=N)N)C(N)=O)C(=O)N[C@@H]([C@@H](C)O)C(=O)N1)C(=O)O)” registered a conjugation yield of 60%.

Values taken from patent publication US20150038671A1 (priority 2013, published 2015).
